The values below come from doi:10.1101/2022.09.09.507380.

Protein sequences, listed by entry. Tags and fused reporters are not part of them.
UniProt P62140: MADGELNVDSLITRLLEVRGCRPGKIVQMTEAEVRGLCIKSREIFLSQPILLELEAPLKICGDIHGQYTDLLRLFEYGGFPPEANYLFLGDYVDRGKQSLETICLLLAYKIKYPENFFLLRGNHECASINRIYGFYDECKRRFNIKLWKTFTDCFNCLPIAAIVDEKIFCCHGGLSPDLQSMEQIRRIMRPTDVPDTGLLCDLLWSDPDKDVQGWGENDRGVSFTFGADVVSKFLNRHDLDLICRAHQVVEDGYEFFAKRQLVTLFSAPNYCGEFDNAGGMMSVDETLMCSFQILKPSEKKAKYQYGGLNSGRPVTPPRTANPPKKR
UniProt P36873: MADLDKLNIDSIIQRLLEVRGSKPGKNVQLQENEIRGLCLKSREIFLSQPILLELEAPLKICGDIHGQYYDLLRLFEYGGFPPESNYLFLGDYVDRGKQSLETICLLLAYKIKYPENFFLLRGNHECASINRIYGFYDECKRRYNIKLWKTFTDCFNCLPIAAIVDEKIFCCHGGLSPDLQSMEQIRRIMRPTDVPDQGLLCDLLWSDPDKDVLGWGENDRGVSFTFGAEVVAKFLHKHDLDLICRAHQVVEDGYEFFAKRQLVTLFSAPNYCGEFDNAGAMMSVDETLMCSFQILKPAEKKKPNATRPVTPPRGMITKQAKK

Results are given in words; binding and its absence hold for the method and conditions named. In cells and extracts the contact can be indirect. A yes stands for co-enrichment or nearness to the bait. Other partners may have been found. For some assays here: A no says only that the protein was not detected with the bait.

Test [1] deals with hPP1β-GFP (pEGFP expression plasmid, stable cell lines) (human) (UniProt P62140). As to the kind of experiment: affinity purification with mass spectrometry.
Test [2] addresses GFP-hPP1γ (pEGFP expression plasmid, stable cell lines) (human) (UniProt P36873). Kind of test: affinity purification with mass spectrometry.

B1: SDS22 (protein, UniProt Q15435 1-360)
chain: MAAERGAGQQQSQEMMEVDRRVESEESGDEEGKKHSSGIVADLSEQSLKDGEERGEEDPEEEHELPVDMETINLDRDAEDVDLNHYRIGKIEGFEVLKKVKTLCLRQNLIKCIENLEELQSLRELDLYDNQIKKIENLEALTELEILDISFNLLRNIEGVDKLTRLKKLFLVNNKISKIENLSNLHQLQMLELGSNRIRAIENIDTLTNLESLFLGKNKITKLQNLDALTNLTVLSMQSNRLTKIEGLQNLVNLRELYLSHNGIEVIEGLENNNKLTMLDIASNRIKKIENISHLTELQEFWMNDNLLESWSDLDELKGARSLETVYLERNPLQKDPQYRRKVMLALPSVRQIDATFVRF
On to B1, for which the binding result in test [1] is “binds”.

B2: Inhibitor-3 (protein, UniProt O60927 1-126)
chain: MAEAGAGLSETVTETTVTVTTEPENRSLTIKLRKRKPEKKVEWTSDTVDNEHMGRRSSKCCCIYEKPRAFGESSTESDEEEEEGCGHTHCVRGHRKGRRRATLGPTPTTPPQPPDPSQPPPGPMQH
As for B2, the binding entry in test [1] and in test [2] was “binds” in each case.

B3: ASPP1 (protein, UniProt Q96KQ4 1-1090)
chain: MMPMILTVFLSNNEQILTEVPITPETTCRDVVEFCKEPGEGSCHLAEVWRGNERPIPFDHMMYEHLQKWGPRREEVKFFLRHEDSPTENSEQGGRQTQEQRTQRNVINVPGEKRTENGVGNPRVELTLSELQDMAARQQQQIENQQQMLVAKEQRLHFLKQQERRQQQSISENEKLQKLKERVEAQENKLKKIRAMRGQVDYSKIMNGNLSAEIERFSAMFQEKKQEVQTAILRVDQLSQQLEDLKKGKLNGFQSYNGKLTGPAAVELKRLYQELQIRNQLNQEQNSKLQQQKELLNKRNMEVAMMDKRISELRERLYGKKIQLNRVNGTSSPQSPLSTSGRVAAVGPYIQVPSAGSFPVLGDPIKPQSLSIASNAAHGRSKSANDGNWPTLKQNSSSSVKPVQVAGADWKDPSVEGSVKQGTVSSQPVPFSALGPTEKPGIEIGKVPPPIPGVGKQLPPSYGTYPSPTPLGPGSTSSLERRKEGSLPRPSAGLPSRQRPTLLPATGSTPQPGSSQQIQQRISVPPSPTYPPAGPPAFPAGDSKPELPLTVAIRPFLADKGSRPQSPRKGPQTVNSSSIYSMYLQQATPPKNYQPAAHSALNKSVKAVYGKPVLPSGSTSPSPLPFLHGSLSTGTPQPQPPSESTEKEPEQDGPAAPADGSTVESLPRPLSPTKLTPIVHSPLRYQSDADLEALRRKLANAPRPLKKRSSITEPEGPGGPNIQKLLYQRFNTLAGGMEGTPFYQPSPSQDFMGTLADVDNGNTNANGNLEELPPAQPTAPLPAEPAPSSDANDNELPSPEPEELICPQTTHQTAEPAEDNNNNVATVPTTEQIPSPVAEAPSPGEEQVPPAPLPPASHPPATSTNKRTNLKKPNSERTGHGLRVRFNPLALLLDASLEGEFDLVQRIIYEVEDPSKPNDEGITPLHNAVCAGHHHIVKFLLDFGVNVNAADSDGWTPLHCAASCNSVHLCKQLVESGAAIFASTISDIETAADKCEEMEEGYIQCSQFLYGVQEKLGVMNKGVAYALWDYEAQNSDELSFHEGDALTILRRKDESETEWWWARLGDREGYVPKNLLGLYPRIKPRQRTLA
On to B3, for which the binding entry in test [1] and in test [2] was “binds” in each case.

B4: KIF18A (protein, UniProt Q8NI77 1-898)
chain: MSVTEEDLCHHMKVVVRVRPENTKEKAAGFHKVVHVVDKHILVFDPKQEEVSFFHGKKTTNQNVIKKQNKDLKFVFDAVFDETSTQSEVFEHTTKPILRSFLNGYNCTVLAYGATGAGKTHTMLGSADEPGVMYLTMLHLYKCMDEIKEEKICSTAVSYLEVYNEQIRDLLVNSGPLAVREDTQKGVVVHGLTLHQPKSSEEILHLLDNGNKNRTQHPTDMNATSSRSHAVFQIYLRQQDKTASINQNVRIAKMSLIDLAGSERASTSGAKGTRFVEGTNINRSLLALGNVINALADSKRKNQHIPYRNSKLTRLLKDSLGGNCQTIMIAAVSPSSVFYDDTYNTLKYANRAKDIKSSLKSNVLNVNNHITQYVKICNEQKAEILLLKEKLKAYEEQKAFTNENDQAKLMISNPQEKEIERFQEILNCLFQNREEIRQEYLKLEMLLKENELKSFYQQQCHKQIEMMCSEDKVEKATGKRDHRLAMLKTRRSYLEKRREEELKQFDENTNWLHRVEKEMGLLSQNGHIPKELKKDLHCHHLHLQNKDLKAQIRHMMDLACLQEQQHRQTEAVLNALLPTLRKQYCTLKEAGLSNAAFESDFKEIEHLVERKKVVVWADQTAEQPKQNDLPGISVLMTFPQLGPVQPIPCCSSSGGTNLVKIPTEKRTRRKLMPSPLKGQHTLKSPPSQSVQLNDSLSKELQPIVYTPEDCRKAFQNPSTVTLMKPSSFTTSFQAISSNINSDNCLKMLCEVAIPHNRRKECGQEDLDSTFTICEDIKSSKCKLPEQESLPNDNKDILQRLDPSSFSTKHSMPVPSMVPSYMAMTTAAKRKRKLTSSTSNSSLTADVNSGFAKRVRQDNSSEKHLQENKPTMEHKRNICKINPSMVRKFGRNISKGNLR
For the molecule B4, the binding entry in test [1] and in test [2] was “binds” in each case.

B5: CDCA2/RepoMan (protein, UniProt Q69YH5 1-1023)
chain: MDANSKDKPPETKESAMNNAGNASFILGTGKIVTPQKHAELPPNPCTPDTFKSPLNFSTVTVEQLGITPESFVRNSAGKSSSYLKKCRRRSAVGARGSPETNHLIRFIARQQNIKNARKSPLAQDSPSQGSPALYRNVNTLRERISAFQSAFHSIKENEKMTGCLEFSEAGKESEMTDLTRKEGLSACQQSGFPAVLSSKRRRISYQRDSDENLTDAEGKVIGLQIFNIDTDRACAVETSVDLSEISSKLGSTQSGFLVEESLPLSELTETSNALKVADCVVGKGSSDAVSPDTFTAEVSSDAVPDVRSPATPACRRDLPTPKTFVLRSVLKKPSVKMCLESLQEHCNNLYDDDGTHPSLISNLPNCCKEKEAEDEENFEAPAFLNMRKRKRVTFGEDLSPEVFDESLPANTPLRKGGTPVCKKDFSGLSSLLLEQSPVPEPLPQPDFDDKGENLENIEPLQVSFAVLSSPNKSSISETLSGTDTFSSSNNHEKISSPKVGRITRTSNRRNQLVSVVEESVCNLLNTEVQPCKEKKINRRKSQETKCTKRALPKKSQVLKSCRKKKGKGKKSVQKSLYGERDIASKKPLLSPIPELPEVPEMTPSIPSIRRLGSGYFSSNGKLEEVKTPKNPVKRKDLLRHDPDLHMHQGYDKYDVSEFCSYIKSSSSLGNATSDEDPNTNIMNINENKNIPKAKNKSESENEPKAGTDSPVSCASVTEERVASDSPKPALTLQQGQEFSAGGQNAENLCQFFKISPDLNIKCERKDDFLGAAEGKLQCNRLMPNSQKDCHCLGDVLIENTKESKSQSEDLGRKPMESSSVVSCRDRKDRRRSMCYSDGRSLHLEKNGNHTPSSSVGSSVEISLENSELFKDLSDAIEQTFQRRNSETKVRRSTRLQKDLENEGLVWISLPLPSTSQKAKRRTICTFDSSGFESMSPIKETVSSRQKPQMAPPVSDPENSQGPAAGSSDEPGKRRKSFCISTLANTKATSQFKGYRRRSSLNGKGESSLTALERIEHNGERKQ
Take B5: in test [1], the binding result is reported as “binds”.

B6: MYPT2 (protein, UniProt O60237 1-982)
chain: MAELEHLGGKRAESARMRRAEQLRRWRGSLTEQEPAERRGAGRQPLTRRGSPRVRFEDGAVFLAACSSGDTDEVRKLLARGADINTVNVDGLTALHQACIDENLDMVKFLVENRANVNQQDNEGWTPLHAAASCGYLNIAEYFINHGASVGIVNSEGEVPSDLAEEPAMKDLLLEQVKKQGVDLEQSRKEEEQQMLQDARQWLNSGKIEDVRQARSGATALHVAAAKGYSEVLRLLIQAGYELNVQDYDGWTPLHAAAHWGVKEACSILAEALCDMDIRNKLGQTPFDVADEGLVEHLELLQKKQNVLRSEKETRNKLIESDLNSKIQSGFFKNKEKMLYEEETPKSQEMEEENKESSSSSSEEEEGEDEASESETEKEADKKPEAFVNHSNSESKSSITEQIPAPAQNTFSASSARRFSSGLFNKPEEPKDESPSSWRLGLRKTGSHNMLSEVANSREPIRDRGSSIYRSSSSPRISALLDNKDKERENKSYISSLAPRKLNSTSDIEEKENRESAVNLVRSGSYTRQLWRDEAKGNEIPQTIAPSTYVSTYLKRTPHKSQADTTAEKTADNVSSSTPLCVITNRPLPSTANGVTATPVLSITGTDSSVEAREKRRSYLTPVRDEEAESLRKARSRQARQTRRSTQGVTLTDLQEAERTFSRSRAERQAQEQPREKPTDTEGLEGSPEKHEPSAVPATEAGEGQQPWGRSLDEEPICHRLRCPAQPDKPTTPASPSTSRPSLYTSSHLLWTNRFSVPDSESSETTTNTTTAKEMDKNENEEADLDEQSSKRLSIRERRRPKERRRGTGINFWTKDEDETDGSEEVKETWHERLSRLESGGSNPTTSDSYGDRASARARREAREARLATLTSRVEEDSNRDYKKLYESALTENQKLKTKLQEAQLELADIKSKLEKVAQQKQEKTSDRSSVLEMEKRERRALERKMSEMEEEMKVLTELKSDNQRLKDENGALIRVISKLSK
B6: the binding entry was “binds” in test [1] and “no binding” in test [2].

B7: ASPP2 (protein, UniProt Q13625 1-1128)
chain: MMPMFLTVYLSNNEQHFTEVPVTPETICRDVVDLCKEPGESDCHLAEVWCGSERPVADNERMFDVLQRFGSQRNEVRFFLRHERPPGRDIVSGPRSQDPSLKRNGVKVPGEYRRKENGVNSPRMDLTLAELQEMASRQQQQIEAQQQLLATKEQRLKFLKQQDQRQQQQVAEQEKLKRLKEIAENQEAKLKKVRALKGHVEQKRLSNGKLVEEIEQMNNLFQQKQRELVLAVSKVEELTRQLEMLKNGRIDSHHDNQSAVAELDRLYKELQLRNKLNQEQNAKLQQQRECLNKRNSEVAVMDKRVNELRDRLWKKKAALQQKENLPVSSDGNLPQQAASAPSRVAAVGPYIQSSTMPRMPSRPELLVKPALPDGSLVIQASEGPMKIQTLPNMRSGAASQTKGSKIHPVGPDWSPSNADLFPSQGSASVPQSTGNALDQVDDGEVPLREKEKKVRPFSMFDAVDQSNAPPSFGTLRKNQSSEDILRDAQVANKNVAKVPPPVPTKPKQINLPYFGQTNQPPSDIKPDGSSQQLSTVVPSMGTKPKPAGQQPRVLLSPSIPSVGQDQTLSPGSKQESPPAAAVRPFTPQPSKDTLLPPFRKPQTVAASSIYSMYTQQQAPGKNFQQAVQSALTKTHTRGPHFSSVYGKPVIAAAQNQQQHPENIYSNSQGKPGSPEPETEPVSSVQENHENERIPRPLSPTKLLPFLSNPYRNQSDADLEALRKKLSNAPRPLKKRSSITEPEGPNGPNIQKLLYQRTTIAAMETISVPSYPSKSASVTASSESPVEIQNPYLHVEPEKEVVSLVPESLSPEDVGNASTENSDMPAPSPGLDYEPEGVPDNSPNLQNNPEEPNPEAPHVLDVYLEEYPPYPPPPYPSGEPEGPGEDSVSMRPPEITGQVSLPPGKRTNLRKTGSERIAHGMRVKFNPLALLLDSSLEGEFDLVQRIIYEVDDPSLPNDEGITALHNAVCAGHTEIVKFLVQFGVNVNAADSDGWTPLHCAASCNNVQVCKFLVESGAAVFAMTYSDMQTAADKCEEMEEGYTQCSQFLYGVQEKMGIMNKGVIYALWDYEPQNDDELPMKEGDCMTIIHREDEDEIEWWWARLNDKEGYVPRNLLGLYPRIKPRQRSLA
For the molecule B7, the binding result in test [1] and in test [2] was “binds” each time.

B8: Inhibitor-2 (protein, UniProt P41236 1-205)
chain: MAASTASHRPIKGILKNKTSTTSSMVASAEQPRGNVDEELSKKSQKWDEMNILATYHPADKDYGLMKIDEPSTPYHSMMGDDEDACSDTEATEAMAPDILARKLAAAEGLEPKYRIQEQESSGEEDSDLSPEEREKKRQFEMKRKLHYNEGLNIKLARQLISKDLHDDDEDEEMLETADGESMNTEESNQGSTPSDQQQNKLRSS
Consider B8, for which the binding result in test [1] and in test [2] was “binds” throughout.
